Test results from PubChem BioAssay AID2205 (University of Pittsburgh Molecular Library Screening Center, 2009).
The other results are listed elsewhere or left out.

Test: microtubule stabilizers in HeLa cells, primary screen, imaging, high-content imaging (AID 2205);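 for toxicity: 0% = mean cell density of plate MIN control wells and 100% = no cells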
Settings: HeLa tubulin immunostaining HCS, 24 h, at 10 µM; % Hoechst-high responders: measured here: nuclear condensation Hoechst responders, stronger effect = higher value, share of cells brighter than vehicle mean+2SD; toxicity: measured here: cytotoxicity by cell density

SMILES | % Hoechst-high responders | toxicity
N/C(=N\O)c1c(N)no[n+]1[O-] | 2.81% | 0.242%
O=C(OC1CN2CCC1CC2)C1c2ccccc2C=Cc2ccccc21 (stereo not given) | 2.38% | 11.9%
COc1ccc(C(=O)NCC2(N3CCOCC3)CCCCC2)cc1OC | 1.79% | 7.39%
c1ccc(CN2CCC(Nc3ccccc3)CC2)cc1 | 2.61% | 5.04%
N#Cc1ccc(C(=O)NCC2(N3CCCCC3)CCCCC2)cc1 | 1.18% | 5%
CCN1CCC(Nc2cccc(F)c2)CC1 | 2.61% | 7.38%
CN(C)c1ccc(C(=O)NCC2(N3CCCCC3)CCCCC2)cc1 | 2.49% | 3.49%
CCC(CO)(C(=O)OC1CN2CCC1CC2)c1ccccc1 (stereo not given) | 5.6% | 6.65%
COc1cc(OC)cc(C(=O)NCC2(N3CCOCC3)CCCCC2)c1 | 1.75% | 9.49%
CCOc1ncccc1C(=O)NCC1(N2CCOCC2)CCCCC1 | 2.71% | 10.4%
CC(C)(C)OC(=O)N1CCC(Nc2ccccc2)CC1 | 2.5% | 4.64%
O=C(NCC1(N2CCOCC2)CCCCC1)c1cc2ccccc2o1 | 3.53% | 5.77%
CCOC(=O)N1CCC(Nc2ccc(OC)cc2)CC1 | 1.56% | 14.8%
O=C(OC1CN2CCC1CC2)C1c2ccccc2Oc2ccccc21 (stereo not given) | 1.05% | 5.18%
COc1ccc(C(=O)NCC2(N3CCCCC3)CCCCC2)c(OC)c1OC | 1.09% | 4.73%
COc1ccc(NC2CCN(CCc3ccccc3)CC2)c(OC)c1 | 1.46% | 6.72%
COc1ccc(NC2CCN(C(=O)OC(C)(C)C)CC2)cc1 | 2.8% | 7.5%
CN1CCN(CCOC(=O)C(O)(c2ccccc2)c2ccccc2)CC1 | 2.04% | 13.5%
O=C(NCC1(N2CCOCC2)CCCCC1)c1cc(=O)[nH]c2ccccc12 | 2.03% | 6.08%
O=C(NCC1(N2CCCCC2)CCCCC1)c1cccc([N+](=O)[O-])c1 | 1.49% | 3.18%
N#CC1(Nc2ccccc2)CCN(CCc2ccccc2)CC1 | 1.41% | 9.36%
CN1CCC(Nc2cccc(F)c2)CC1 | 1.4% | 6%
CN(C)c1cccc(C(=O)NCC2(N3CCCCC3)CCCCC2)c1 | 1.04% | 21.5%
COc1ccc(CN(CCCl)CCCl)cc1Cl | 1.85% | 7.03%
CC(C)c1ccc(NC2CCN(C(=O)OC(C)(C)C)CC2)cc1 | 1.99% | 4.55%
